Results reported in article PMC4267777.
Results are given in words; binding and its absence hold for the method and conditions named. Some binding calls cover weakened binding; strength is not graded here.

By UniProt entry, the sequences of proteins in these tests, tags left out.
UniProt P22535: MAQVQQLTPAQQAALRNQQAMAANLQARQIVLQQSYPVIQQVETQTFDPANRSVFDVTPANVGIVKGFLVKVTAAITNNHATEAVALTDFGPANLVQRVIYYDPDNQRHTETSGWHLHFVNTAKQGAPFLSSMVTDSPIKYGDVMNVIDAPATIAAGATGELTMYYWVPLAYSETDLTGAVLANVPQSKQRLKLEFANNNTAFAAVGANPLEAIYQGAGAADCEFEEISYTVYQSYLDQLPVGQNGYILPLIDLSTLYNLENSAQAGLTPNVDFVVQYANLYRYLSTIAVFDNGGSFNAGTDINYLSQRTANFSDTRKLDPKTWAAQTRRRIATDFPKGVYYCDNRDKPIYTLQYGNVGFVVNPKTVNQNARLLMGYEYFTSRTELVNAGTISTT

Target: major capsid protein P3 of bacteriophage PRD1 (bacteriophage PRD1) (UniProt P22535)
Assay: cryo-EM structure; mature wt PRD1 virion, purified particles, single particle reconstruction without icosahedral symmetry imposition at 12 Å; crystal structures of P3 and P31 docked; proteins assigned by comparison with procapsid and mutant particles

With “major capsid protein P3 of bacteriophage PRD1 (from UniProt P22535 1-395)” the binding was “binds”.
